# Source: the supplement of paper PMC10689618
# Where a name gives a salt, the structure may show the parent alone. Some of the results follow. Repeats are few or missing, and single values can be far off.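 Labelled rat cortical synaptosomes were engulfed by primary human fetal astrocytes. Engulfment equaled a red/green ratio, corrected for calcein live-cell signal and normalized to the plate median. Compounds were toxic when calcein dropped over 30%, and reduced phagocytosis when below 70% of the median above 5 µM.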
# Key:
# [1] = test system: Human fetal astrocytes; experiment: loss of total cells relative to no-compound high-control median (toxicity); higher = more toxic (fewer cells); settings: 24 h
# [2] = test system: Human fetal astrocytes; experiment: synaptosome phagocytosis (pHrodo/calcein intensity ratio) relative to plate median of data wells; higher = more phagocytosis; settings: 24 h
Compound,loss of total cells ([1]; 1.39 µM) [%],loss of total cells ([1]; 2.78 µM) [%],loss of total cells ([1]; 5.56 µM) [%],loss of total cells ([1]; 11.11 µM) [%],loss of total cells ([1]; 22.22 µM) [%],synaptosome phagocytosis ([2]; 1.39 µM) [%],synaptosome phagocytosis ([2]; 2.78 µM) [%],synaptosome phagocytosis ([2]; 5.56 µM) [%],synaptosome phagocytosis ([2]; 11.11 µM) [%],synaptosome phagocytosis ([2]; 22.22 µM) [%]
O=C1c2ccccc2-c2n[nH]c3cccc1c23,7.9,6.8,6.6,-19.3,12,95.7,118,78.6,87.9,79.8
CC(C)C1C2CCC(C2)C1N (stereo not given),-21.7,-15.9,-7.8,-7.6,1.9,107,64.6,94.6,124,65.5
CC(C)CN(C)c1nc(N)c(C(=O)N=C(N)N)nc1Cl [5-(N-Methyl-N-isobutyl)amiloride],-23.1,-12.9,-17.1,-10.3,16.2,96.5,71.2,86.3,72.7,75.1
NC(=O)C(=O)O [Sodium Oxamate],-3.3,4.1,-1.4,21,2.8,102,100,119,127,118
CCCNC(=O)NS(=O)(=O)c1ccc(Cl)cc1 [Chlorpropamide],-23.1,-7.2,-5.1,-5.8,8.6,52.8,93.5,92.5,109,86.1
CC(C)C(=O)c1c(C(C)C)nn2ccccc12 [Ibudilast],4.6,-5.1,7.4,-2.2,-6.4,91.6,87.3,112,89.8,92.7
COC(=O)C1=C(C)NC(C)=C([N+](=O)[O-])C1c1ccccc1C(F)(F)F (racemic),-16.5,-7.2,-13.4,-26.5,-1.9,109,104,87.5,83.9,110
NC/C=C/C(=O)O [(E)-4-amino-2-butenoic acid],-7.8,-16.5,0.6,-2.7,-21.4,93.1,109,117,119,141
C[C@H](CCC(=O)NCCS(=O)(=O)O)[C@H]1CC[C@H]2[C@@H]3[C@H](O)C[C@@H]4C[C@H](O)CC[C@]4(C)[C@H]3C[C@H](O)[C@]12C [Sodium Taurocholate],-22,-3,-19.8,-5.8,-7.1,85.5,92.9,97.6,96.2,94
NS(=O)(=O)c1cc(C(=O)O)c(NCc2ccco2)cc1Cl [Furosemide],5.4,-24.8,-11.5,-8.5,4,124,90.5,122,126,108
Oc1cc2c(cc1O)CN(C(=S)NCCc1ccc(Cl)cc1)CCC2 [Capsazepine],-28.9,-20.5,-23,13.9,6.4,93.2,94.8,83.7,102,85.2
"CCCn1c(=O)c2[nH]c(-c3ccc(S(=O)(=O)O)cc3)nc2n(CCC)c1=O [1,3-Dipropyl-8-p-sulfophenylxanthine]",-4.8,-12,-7.8,1.3,-4.1,85.7,95.1,114,115,124
NC(=O)c1cccc(N)c1 [3-aminobenzamide],-8.1,-14.1,-2.3,-12.1,9.4,131,105,115,122,133
CC1CNCCN1S(=O)(=O)c1cccc2cnccc12 (stereo not given) [H-7 dihydrochloride],-10.5,-23.9,-6.6,-4,-4,98.1,96.1,77.2,94.2,66.5
CN(C)CCC=C1c2ccccc2COc2ccccc21 [Doxepin hydrochloride],-5.4,-21.4,-6.6,-2.2,-1.6,128,103,104,131,86.1
Cc1cccc(C2CN(C)CCc3c2cc(O)c(O)c3Cl)c1 (stereo not given),-7.8,-33.8,-25.8,-10.3,-23,99.9,87.8,102,95.9,91.6
O=c1[nH]c(=O)n([C@H]2C[C@H](O)[C@@H](CO)O2)cc1Br [5-Bromo-2'-deoxyuridine],-13.6,-14.7,-12.4,-25.6,-1.1,104,124,108,102,110
CNCCNS(=O)(=O)c1cccc2cnccc12 [H-8 dihydrochloride],-2.4,13.1,6.1,14.3,25.2,129,147,114,115,118
CNCC[C@H](Oc1ccc(C(F)(F)F)cc1)c1ccccc1 [S-(+)-Fluoxetine hydrochloride],-16.3,-22.2,-12.3,-30,4.8,76.7,92.8,91.9,90.8,57
N#C/C(=C\c1ccc(O)c(O)c1)C(=O)NCCc1ccccc1 [Tyrphostin AG 698],-36.3,-14.1,-7.3,-12.6,-46.1,110,90.1,98,104,84.2
"CN(C)C(N)=NCCC[C@H](N)C(=O)O [N^G,N^G-Dimethylarginine hydrochloride]",-7.1,-11.1,8.2,-10.3,-8,119,98,81.3,93.7,98.3
"Cn1c(=O)[nH]c2ncn(C)c2c1=O [1,7-Dimethylxanthine]",-24.7,-44.4,-23.9,-2.2,-8.8,107,109,102,95.2,73.9

Compound,loss of total cells ([1]; 1.39 µM) [%],loss of total cells ([1]; 2.78 µM) [%],loss of total cells ([1]; 5.56 µM) [%],loss of total cells ([1]; 11.11 µM) [%],loss of total cells ([1]; 22.22 µM) [%],synaptosome phagocytosis ([2]; 1.39 µM) [%],synaptosome phagocytosis ([2]; 2.78 µM) [%],synaptosome phagocytosis ([2]; 5.56 µM) [%],synaptosome phagocytosis ([2]; 11.11 µM) [%],synaptosome phagocytosis ([2]; 22.22 µM) [%]
CCOC(=O)C1=C(C)NC(C)=C(C(=O)OC)C1c1cccc(Cl)c1Cl (stereo not given) [Felodipine],10.5,-13.7,-1.6,0.4,-0.8,96.1,100,102,102,81.5
CN/C(=N\CCSCc1nc[nH]c1C)NC#N [Cimetidine],-4.4,-6.9,-17.1,2.2,-4.9,215,120,122,121,92.5
"Cn1c(=O)c2[nH]c(-c3ccccc3)nc2n(C)c1=O [1,3-Dimethyl-8-phenylxanthine]",0.5,-3.2,-8,18.1,28,102,90.3,123,94.9,120
COc1ccc2c(c1OC)C(=O)O[C@@H]2[C@H]1c2c(cc3c(c2OC)OCO3)CCN1C [Noscapine hydrchloride],4.3,11.3,4.2,8.6,13.1,113,87.5,97.2,94.2,115
CCCCCCCCCCCCCCSCC(=O)O [Tetradecylthioacetic acid],-11.5,-16.5,-8.4,10.3,-7.4,108,109,116,146,112
C=CCN1CCc2cc(O)c(O)cc2C(c2ccccc2)C1 (racemic),-2.2,-11.1,-5.6,-13.4,-18.9,126,78.1,117,114,71.2
Cc1nc(N=Nc2cc(S(=O)(=O)O)c3cc([N+](=O)[O-])cc(S(=O)(=O)O)c3c2)c(COP(=O)(O)O)c(C=O)c1O [PPNDS tetrasodium],-13.7,-2.3,7,4.8,15,84.2,98.4,67.1,112,96.5
N#C/C(=C\c1ccc(O)c(O)c1)C(=O)NCc1ccccc1 [Tyrphostin AG 490],-10.9,-5.7,11.2,-8.8,-27.2,105,124,139,110,105
CCCCCC[C@@H]([C@@H](C)O)n1cnc2c(N)ncnc21 [erythro-9-(2-Hydroxy-3-nonyl)adenine hydrochloride],-3.8,-12,-6.6,-13,-8,87.3,101,121,99,88.4
CC#C[C@]1(O)CC[C@H]2[C@@H]3CCC4=CC(=O)CCC4=C3[C@@H](c3ccc(N(C)C)cc3)C[C@@]21C [Mifepristone],7.1,-0.5,-4.2,-3.8,-13.1,99.5,95.9,94.1,99.8,86.3
"NC(N)=NC(=O)c1nc(Cl)c(N2CCCCCC2)nc1N [5-(N,N-hexamethylene)amiloride]",-2.2,-14.1,-5.1,-7.6,10.2,92.4,92.5,112,87,132
CN1CCN(CC/C=C2/c3ccccc3Sc3ccc(S(=O)(=O)N(C)C)cc32)CC1 [Thiothixene hydrochloride],-18.3,7.5,1.1,34.1,13.2,98.3,109,110,77.1,72.4
O=C(O)CCC/C=C\C[C@@H]1[C@@H](/C=C/[C@H](O)C2Cc3ccccc3C2)[C@@H](F)C[C@@H]1O,-14.7,-17.1,-18,-11.2,1.1,125,102,109,104,107
CCCCCCCCCCCCCCCC(=O)NCC(COP(=O)([O-])OCC[N+](C)(C)C)OCC (racemic) [rac-2-Ethoxy-3-hexadecanamido-1-propylphosphocholine],-15.5,-17.9,-4.9,13,32.8,69.8,90,79.7,57.9,66.8
CN/C(=N\c1ccc(C2=NNC(=O)CC2C)cc1)NC#N (stereo not given),-10.9,-4.5,-2.2,-14.9,-38.7,106,97.5,105,99.2,114
CC(C)C[C@H](NC(=O)[C@H](O)[C@H](N)Cc1ccccc1)C(=O)O [Epibestatin hydrochloride],-20.5,-30.8,-11.5,-10.3,1.6,77.7,85.1,93.9,104,128
CC(C)C[C@H](NC(=O)[C@H]1O[C@@H]1C(=O)O)C(=O)NCCCCN=C(N)N,14.6,-5.1,0.8,2.2,4.8,96.6,65.5,90.1,138,87.5
CC(N/C(=N\C#N)Nc1ccncc1)C(C)(C)C (stereo not given) [Pinacidil],-0.9,-23.7,-17.4,-11.1,-39.5,107,99.2,109,110,127
CC[C@H](CO)Nc1nc(NCc2ccccc2)c2ncn(C(C)C)c2n1 [Roscovitine],-13.4,-5.7,-0.6,1.1,-1.6,126,107,110,88.4,60.6
CN1CCc2cccc3c2[C@H]1Cc1ccc(O)c(O)c1-3 [Apomorphine hydrochloride hemihydrate],-13.2,1.5,1.4,3.1,4.1,71.7,98.8,82.1,66.1,32.7
Cc1cccc(C#Cc2ccccc2)n1 [6-Methyl-2-(phenylethynyl)pyridine hydrochloride],-9,1.4,2.3,12.4,15,108,107,59.7,87.7,112

# Shown tab-delimited: three of the compounds above.
Compound	loss of total cells ([1]; 1.39 µM) [%]	loss of total cells ([1]; 2.78 µM) [%]	loss of total cells ([1]; 5.56 µM) [%]	loss of total cells ([1]; 11.11 µM) [%]	loss of total cells ([1]; 22.22 µM) [%]	synaptosome phagocytosis ([2]; 1.39 µM) [%]	synaptosome phagocytosis ([2]; 2.78 µM) [%]	synaptosome phagocytosis ([2]; 5.56 µM) [%]	synaptosome phagocytosis ([2]; 11.11 µM) [%]	synaptosome phagocytosis ([2]; 22.22 µM) [%]
CCCCCCCCCCCCCCSCC(=O)O [Tetradecylthioacetic acid]	-11.5	-16.5	-8.4	10.3	-7.4	108	109	116	146	112
C=CCN1CCc2cc(O)c(O)cc2C(c2ccccc2)C1 (racemic)	-2.2	-11.1	-5.6	-13.4	-18.9	126	78.1	117	114	71.2
Cc1nc(N=Nc2cc(S(=O)(=O)O)c3cc([N+](=O)[O-])cc(S(=O)(=O)O)c3c2)c(COP(=O)(O)O)c(C=O)c1O [PPNDS tetrasodium]	-13.7	-2.3	7	4.8	15	84.2	98.4	67.1	112	96.5
